Assay [1] has as its target T1, mouse TR4 orphan nuclear receptor, Flag-tagged at the amino terminus, wild type (mouse), P49117.
T1 chain: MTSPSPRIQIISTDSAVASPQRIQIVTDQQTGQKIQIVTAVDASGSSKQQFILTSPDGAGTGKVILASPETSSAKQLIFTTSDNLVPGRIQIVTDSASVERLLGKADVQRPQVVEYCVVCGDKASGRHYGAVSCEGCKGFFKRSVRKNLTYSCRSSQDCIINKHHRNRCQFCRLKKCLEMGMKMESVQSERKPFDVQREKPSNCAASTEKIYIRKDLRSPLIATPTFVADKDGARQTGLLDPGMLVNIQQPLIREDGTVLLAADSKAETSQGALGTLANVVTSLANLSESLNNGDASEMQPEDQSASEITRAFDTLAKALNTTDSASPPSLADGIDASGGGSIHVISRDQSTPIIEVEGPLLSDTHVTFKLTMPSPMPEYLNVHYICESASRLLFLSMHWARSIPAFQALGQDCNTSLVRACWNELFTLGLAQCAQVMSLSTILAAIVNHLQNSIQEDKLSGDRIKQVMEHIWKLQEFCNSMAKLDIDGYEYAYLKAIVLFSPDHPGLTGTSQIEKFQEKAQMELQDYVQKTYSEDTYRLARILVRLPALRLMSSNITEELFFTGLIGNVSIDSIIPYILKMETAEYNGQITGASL
In words: EMSA of 293T nuclear extracts on the ε distal DR probe; homodimer inferred. To be noted: remark: other sources report otherwise.

In assay [2] the target is T2, mouse TR2 orphan nuclear receptor, Flag-tagged at the amino terminus, wild type (mouse), Q505F1.
T2 chain: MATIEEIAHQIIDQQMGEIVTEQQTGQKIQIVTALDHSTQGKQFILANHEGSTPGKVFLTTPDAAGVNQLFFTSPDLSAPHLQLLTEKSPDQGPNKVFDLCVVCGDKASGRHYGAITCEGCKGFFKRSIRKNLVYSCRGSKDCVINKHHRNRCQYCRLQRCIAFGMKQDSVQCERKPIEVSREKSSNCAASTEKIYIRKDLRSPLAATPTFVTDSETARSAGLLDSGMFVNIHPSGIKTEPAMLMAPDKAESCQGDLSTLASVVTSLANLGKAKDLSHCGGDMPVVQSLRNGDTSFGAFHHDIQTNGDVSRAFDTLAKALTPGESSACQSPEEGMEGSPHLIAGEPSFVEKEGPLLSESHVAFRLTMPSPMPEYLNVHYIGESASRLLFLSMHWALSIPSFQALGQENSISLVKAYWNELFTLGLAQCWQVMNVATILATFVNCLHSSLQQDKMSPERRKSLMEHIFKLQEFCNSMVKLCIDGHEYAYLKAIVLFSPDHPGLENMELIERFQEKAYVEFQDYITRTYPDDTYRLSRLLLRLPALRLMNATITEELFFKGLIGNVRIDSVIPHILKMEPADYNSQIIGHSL
Described as above. The note with it: remark: other sources report otherwise.

No constants are given. Whether binding was seen depends on the method and setting. Some binding calls cover weakened binding; strength is not graded here. Sequences can lack the tags named with a protein.

B1: mouse TR4 orphan nuclear receptor, Flag-tagged at the amino terminus, wild type, P49117 1-596 (receptor, UniProt P49117 1-596, looked up, not shown: small tags and cut ends)
chain: T1 chain
Consider B1, for which the binding entry in assay [1] was “binds”.

B2: mouse TR2 orphan nuclear receptor, Flag-tagged at the amino terminus, wild type (receptor, UniProt Q505F1 1-590, looked up)
chain: T2 chain
notes: also called wild type TR2; not shown: Flag tag at the amino terminus
Consider B2, for which, in assay [2], the binding result is on record as “binds”.

Values taken from patent US20080008651A1, “Screening Methods and Transgenic Animals for the Treatment of Beta-Globin Related Disease and Conditions” (THE REGENTS OF THE UNIVERSITY OF MICHIGAN, published 2008).
